Test results from PubChem BioAssay AID1671190 (National Center for Advancing Translational Sciences (NCATS), 2021).
About 6,100 (1.1%) of roughly 580,000 compounds were called active. The inconclusive results got no clear call from the source; some entries with a clear call stand among them for comparison. Calls follow the shape of the dose curve; as a rule, active = well fitted inhibition curve with a large enough effect; inconclusive = small, poorly fitted or top-dose-only effect, or another doubt; inactive = no such curve, though single readings can be large or run the other way. Where the call is inconclusive, the potency comes from a doubtful curve fit.

Sequences of proteins named here, by UniProt entry; tags and fusion partners are left off. A change or cut given only in a name is not applied to a line headed by its entry.
UniProt P18054: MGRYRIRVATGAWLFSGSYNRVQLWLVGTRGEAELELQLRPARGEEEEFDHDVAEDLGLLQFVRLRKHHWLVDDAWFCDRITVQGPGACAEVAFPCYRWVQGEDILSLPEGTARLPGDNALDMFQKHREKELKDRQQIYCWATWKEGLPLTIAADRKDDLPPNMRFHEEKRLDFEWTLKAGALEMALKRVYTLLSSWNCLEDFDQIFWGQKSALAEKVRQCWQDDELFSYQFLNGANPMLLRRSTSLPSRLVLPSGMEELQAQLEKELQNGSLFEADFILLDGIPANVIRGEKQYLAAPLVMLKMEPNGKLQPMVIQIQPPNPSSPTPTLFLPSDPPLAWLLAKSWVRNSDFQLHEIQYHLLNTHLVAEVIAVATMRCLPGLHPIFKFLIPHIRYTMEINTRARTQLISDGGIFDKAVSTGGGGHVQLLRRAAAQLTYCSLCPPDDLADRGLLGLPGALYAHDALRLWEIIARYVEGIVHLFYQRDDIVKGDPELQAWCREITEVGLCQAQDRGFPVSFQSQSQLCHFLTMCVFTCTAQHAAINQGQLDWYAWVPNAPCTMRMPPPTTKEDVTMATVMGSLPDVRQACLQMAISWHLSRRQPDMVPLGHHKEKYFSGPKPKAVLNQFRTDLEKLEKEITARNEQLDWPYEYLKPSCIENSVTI

target: Polyunsaturated fatty acid lipoxygenase ALOX12 (Homo sapiens) (UniProt P18054); test: Primary qHTS assay for inhibitors of human arachidonate 12S-lipoxygenase (ALOX12): Round 2; settings: purified 12hLO, xylenol orange hydroperoxide absorbance; activity change, negative = inhibition: at 108 µM (top of the series) unless noted
Method in brief: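 Purified human 12hLO at 150 nM in 25 mM Hepes, 0.01% Triton X-100, pH 7.0, preincubated 15 min at room temperature with compound. Reaction started with 40 uM arachidonic acid, 30 min at room temperature. Hydroperoxide measured by Fe-xylenol orange, 573/405 nm absorbance ratio.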
% is scaled to controls: 0 for no effect and ±100 for the full control effect; potency is read from the fitted curve at half-maximal effect.

Structure (SMILES) | Potency | activity change, negative = inhibition
CC1CCN(CCCCOc2ccc(Br)cc2)CC1 | inconclusive: 0.282 µM [inhibitor, full curve, poor fit] | 
Oc1ccc(Cl)cc1CNc1cnc2ccccc2c1 | active: 39.8 µM | 
COc1ccc2c(c1)c(CC(=O)OCC(=O)O)c(C)n2C(=O)c1ccc(Cl)cc1 | inactive | 
OC(CNC1CCCC1)COc1ccc(F)cc1 (centres undefined) | inconclusive: 79.4 µM [inhibitor, partial curve, poor fit] | 
C=CCCC(=O)N1C[C@H]2CCN(C)[C@H]2C[C@H]1c1ccccc1 | inconclusive: 112 µM [inhibitor, single point] | 
O=C1NC(Cc2ccc(O)cc2)c2nc3cc(F)ccc3c(=O)n2-c2ncccc21 (centres undefined) |  | inactive: -1.23%
COc1ccc(/C=C/C(=O)c2cc3ccccc3o2)cc1OC | inconclusive: 20 µM [inhibitor, partial curve, poor fit] | 
CC(=O)Nc1ccc(NC(=O)c2nc(S(=O)(=O)Cc3ccccc3)ncc2Cl)cc1 |  | inactive: -0.0784%
O=C1NC[C@@H](CCCCN2C[C@H](Cc3ccccc3)N(Cc3ccccc3)C(=O)C2=O)N(CC2CCCCC2)C1=O | inconclusive: 112 µM [inhibitor, partial curve, poor fit] | 
CCOc1c(Cl)cc(C(=O)N(Cc2ccc(N(C)C)cc2)Cc2ccco2)cc1Cl |  | inactive: -25.5%
CC(=O)NNC(N)=S | inconclusive: 0.794 µM [inhibitor, full curve, poor fit] | 
N=c1c(S(=O)(=O)c2ccc(Br)cc2)cc2c(=O)n3ccccc3nc2n1C1CCCCC1 |  | inactive: -18.5%
COc1ccc(CNC(=O)CSc2nc(-c3ccc4c(c3)OCO4)ccc2C#N)cc1OC | inconclusive: 126 µM [inhibitor, partial curve, poor fit] | 
COC(=O)C1=C(C)N(Cc2ccccc2C(F)(F)F)C(=NCc2ccc3c(c2)OCO3)NC1c1ccc(C(F)(F)F)cc1 (centres undefined) | inconclusive: 50.1 µM [inhibitor, partial curve, poor fit] | 
Cc1cc(-c2ccccc2)nc(SCC(=O)N2CCCC2)n1 | inconclusive: 4.47 µM [inhibitor, full curve, poor fit] | 
CCc1ccc(C(=O)NNc2ccccc2F)cc1 | inconclusive: 35.5 µM [inhibitor, single point] | 
Cc1nn(Cc2ccc(F)cc2)c(C)c1NC(=O)c1cnn2c1NC(c1ccccc1)CC2C(F)(F)F (centres undefined) |  | inactive: 0%
Cn1cccc1C(=S)N=P(C1CCCCC1)(N1CCOCC1)N1CCOCC1 | inconclusive: 28.2 µM [inhibitor, partial curve] | 
CC1(C(=O)Nc2ccc3nc[nH]c3c2)CCN1C(=O)C/C=C/c1ccccc1 (centres undefined) |  | inactive: 15%

Quoted at random: 2 compounds from above.
Structure (SMILES) | Potency | activity change, negative = inhibition
Oc1ccc(Cl)cc1CNc1cnc2ccccc2c1 | active: 39.8 µM | 
CC1CCN(CCCCOc2ccc(Br)cc2)CC1 | inconclusive: 0.282 µM [inhibitor, full curve, poor fit] | 
